We go through three substances from article PMC10878140.

Sequences of proteins named here, by UniProt entry; tags and fusion partners are left off.
UniProt Q9H9S0: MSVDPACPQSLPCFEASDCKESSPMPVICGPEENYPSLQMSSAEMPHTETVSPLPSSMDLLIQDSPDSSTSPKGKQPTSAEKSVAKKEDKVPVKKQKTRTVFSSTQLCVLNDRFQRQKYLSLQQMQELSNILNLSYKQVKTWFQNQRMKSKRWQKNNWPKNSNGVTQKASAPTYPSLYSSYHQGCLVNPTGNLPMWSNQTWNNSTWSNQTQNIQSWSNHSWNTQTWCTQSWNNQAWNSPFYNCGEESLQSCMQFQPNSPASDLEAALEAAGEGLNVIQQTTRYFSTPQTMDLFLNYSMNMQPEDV
UniProt P48431: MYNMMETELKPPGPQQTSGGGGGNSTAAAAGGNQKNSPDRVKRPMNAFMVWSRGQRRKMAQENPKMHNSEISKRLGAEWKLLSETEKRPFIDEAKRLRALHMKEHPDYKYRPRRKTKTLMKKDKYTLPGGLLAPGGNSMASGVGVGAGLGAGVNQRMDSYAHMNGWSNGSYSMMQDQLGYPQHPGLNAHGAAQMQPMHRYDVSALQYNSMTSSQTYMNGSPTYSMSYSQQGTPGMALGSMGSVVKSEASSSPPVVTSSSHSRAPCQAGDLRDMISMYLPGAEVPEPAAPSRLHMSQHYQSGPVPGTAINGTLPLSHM
UniProt Q01860: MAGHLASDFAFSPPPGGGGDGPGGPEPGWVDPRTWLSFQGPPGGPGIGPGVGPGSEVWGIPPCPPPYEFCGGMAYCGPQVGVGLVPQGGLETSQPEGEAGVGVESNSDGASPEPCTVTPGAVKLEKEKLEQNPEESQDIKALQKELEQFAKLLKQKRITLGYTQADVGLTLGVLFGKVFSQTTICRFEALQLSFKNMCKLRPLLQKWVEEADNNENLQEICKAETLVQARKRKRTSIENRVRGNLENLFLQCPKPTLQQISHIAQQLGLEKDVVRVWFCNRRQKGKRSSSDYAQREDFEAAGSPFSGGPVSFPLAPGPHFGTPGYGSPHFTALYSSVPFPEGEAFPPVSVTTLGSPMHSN

In the assay the target is T1, POZ/BTB and AT hook containing zinc finger 1 (PATZ1) (human (endogenous in H1 hESCs)) (UniProt Q9HBE1).
T1 sequence: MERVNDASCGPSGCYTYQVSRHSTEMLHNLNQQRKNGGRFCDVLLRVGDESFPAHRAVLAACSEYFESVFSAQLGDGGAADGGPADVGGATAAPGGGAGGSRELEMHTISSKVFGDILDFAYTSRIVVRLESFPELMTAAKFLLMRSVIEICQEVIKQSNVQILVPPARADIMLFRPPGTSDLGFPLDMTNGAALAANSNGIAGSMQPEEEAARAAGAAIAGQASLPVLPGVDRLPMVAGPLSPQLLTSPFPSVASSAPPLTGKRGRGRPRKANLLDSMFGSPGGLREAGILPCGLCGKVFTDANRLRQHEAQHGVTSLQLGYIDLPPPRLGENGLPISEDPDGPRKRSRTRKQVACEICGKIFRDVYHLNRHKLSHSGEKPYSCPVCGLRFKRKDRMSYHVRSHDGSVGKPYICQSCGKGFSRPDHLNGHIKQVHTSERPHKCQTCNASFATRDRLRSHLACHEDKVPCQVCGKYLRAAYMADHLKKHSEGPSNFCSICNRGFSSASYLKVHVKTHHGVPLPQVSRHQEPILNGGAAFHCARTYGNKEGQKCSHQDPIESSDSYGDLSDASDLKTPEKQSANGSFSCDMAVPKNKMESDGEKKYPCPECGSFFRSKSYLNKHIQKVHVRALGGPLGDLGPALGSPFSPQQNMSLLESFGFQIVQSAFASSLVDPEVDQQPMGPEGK
Nature of the assay: co-IP; endogenous proteins, cells lysed in NP40 buffer with protease inhibitor cocktail; protein fraction incubated with Dynabeads-coupled primary antibodies overnight at 4 C; eluted by boiling in 2x SDS loading buffer, western blot. (In general: Immunoblotting shows a protein as a band on a membrane.)

These are yes or no findings as the source states them, for the method shown. In cells and extracts the contact can be indirect. Some binding calls cover weakened binding; strength is not graded here.

With NANOG (from UniProt Q9H9S0 1-305), the binding result is listed as “binds”.

Turning to SOX2 (from UniProt P48431 1-317), the binding result is given as “binds”.

As for OCT4 (from UniProt Q01860 1-360), the binding result is on record as “binds”.
